No constants are given. Whether binding was seen depends on the method and setting. In cells and extracts the contact can be indirect. These calls come from enrichment with a bait or labelling near it, and not all partners need be listed.
B1: DENND2A (protein, UniProt Q9ULE3 1-1009)
chain: MDMFSLDMIISDPAAEASRAGKKQLRGVQNPCPSARARPRHKSLNIKDKISEWEGKKEVPTPAPSRRADGQEDYLPSSTVERRSSDGVRTQVTEAKNGMRPGTESTEKERNKGAVNVGGQDPEPGQDLSQPEREVDPSWGRGREPRLGKLRFQNDPLSVLKQVKKLEQALKDGSAGLDPQLPGTCYSPHCPPDKAEAGSTLPENLGGGSGSEVSQRVHPSDLEGREPTPELVEDRKGSCRRPWDRSLENVYRGSEGSPTKPFINPLPKPRRTFKHAGEGDKDGKPGIGFRKEKRNLPPLPSLPPPPLPSSPPPSSVNRRLWTGRQKSSADHRKSYEFEDLLQSSSESSRVDWYAQTKLGLTRTLSEENVYEDILDPPMKENPYEDIELHGRCLGKKCVLNFPASPTSSIPDTLTKQSLSKPAFFRQNSERRNFKLLDTRKLSRDGTGSPSKISPPSTPSSPDDIFFNLGDPQNGRKKRKIPKLVLRINAIYEVRRGKKRVKRLSQSMESNSGKVTDENSESDSDTEEKLKAHSQRLVNVKSRLKQAPRYPSLARELIEYQERQLFEYFVVVSLHKKQAGAAYVPELTQQFPLKLERSFKFMREAEDQLKAIPQFCFPDAKDWVPVQQFTSETFSFVLTGEDGSRRFGYCRRLLPGGKGKRLPEVYCIVSRLGCFSLFSRILDEVEKRRGISPALVQPLMRSVMEAPFPALGKTILVKNFLPGSGTEVIELCRPLDSRLEHVDFESLFSSLSVRHLVCVFASLLLERRVIFIADKLSILSKCCHAMVALIYPFAWQHTYIPVLPPAMVDIVCSPTPFLIGLLSSSLPLLRELPLEEVLVVDLVNSRFLRQMDDEDSILPRKLQVALEHILEQRNELACEQDEGPLDGRHGPESSPLNEVVSEAFVRFFVEIVGHYSLFLTSGEREERTLQREAFRKAVSSKSLRHFLEVFMETQMFRGFIQERELRRQDAKGLFEVRAQEYLETLPSGEHSGVNKFLKGLGNKMKFLHKK
B2: TONSL (protein, UniProt Q96HA7 1-1378)
chain: MSLERELRQLSKAKAKAQRAGQRREEAALCHQLGELLAGHGRYAEALEQHWQELQLRERADDPLGCAVAHRKIGERLAEMEDYPAALQHQHQYLELAHSLRNHTELQRAWATIGRTHLDIYDHCQSRDALLQAQAAFEKSLAIVDEELEGTLAQGELNEMRTRLYLNLGLTFESLQQTALCNDYFRKSIFLAEQNHLYEDLFRARYNLGTIHWRAGQHSQAMRCLEGARECAHTMRKRFMESECCVVIAQVLQDLGDFLAAKRALKKAYRLGSQKPVQRAAICQNLQHVLAVVRLQQQLEEAEGRDPQGAMVICEQLGDLFSKAGDFPRAAEAYQKQLRFAELLDRPGAERAIIHVSLATTLGDMKDHHGAVRHYEEELRLRSGNVLEEAKTWLNIALSREEAGDAYELLAPCFQKALSCAQQAQRPQLQRQVLQHLHTVQLRLQPQEAPETETRLRELSVAEDEDEEEEAEEAAATAESEALEAGEVELSEGEDDTDGLTPQLEEDEELQGHLGRRKGSKWNRRNDMGETLLHRACIEGQLRRVQDLVRQGHPLNPRDYCGWTPLHEACNYGHLEIVRFLLDHGAAVDDPGGQGCEGITPLHDALNCGHFEVAELLLERGASVTLRTRKGLSPLETLQQWVKLYRRDLDLETRQKARAMEMLLQAAASGQDPHSSQAFHTPSSLLFDPETSPPLSPCPEPPSNSTRLPEASQAHVRVSPGQAAPAMARPRRSRHGPASSSSSSEGEDSAGPARPSQKRPRCSATAQRVAAWTPGPASNREAATASTSRAAYQAAIRGVGSAQSRLGPGPPRGHSKALAPQAALIPEEECLAGDWLELDMPLTRSRRPRPRGTGDNRRPSSTSGSDSEESRPRARAKQVRLTCMQSCSAPVNAGPSSLASEPPGSPSTPRVSEPSGDSSAAGQPLGPAPPPPIRVRVQVQDHLFLIPVPHSSDTHSVAWLAEQAAQRYYQTCGLLPRLTLRKEGALLAPQDLIPDVLQSNDEVLAEVTSWDLPPLTDRYRRACQSLGQGEHQQVLQAVELQGLGLSFSACSLALDQAQLTPLLRALKLHTALRELRLAGNRLGDKCVAELVAALGTMPSLALLDLSSNHLGPEGLRQLAMGLPGQATLQSLEELDLSMNPLGDGCGQSLASLLHACPLLSTLRLQACGFGPSFFLSHQTALGSAFQDAEHLKTLSLSYNALGAPALARTLQSLPAGTLLHLELSSVAAGKGDSDLMEPVFRYLAKEGCALAHLTLSANHLGDKAVRDLCRCLSLCPSLISLDLSANPEISCASLEELLSTLQKRPQGLSFLGLSGCAVQGPLGLGLWDKIAAQLRELQLCSRRLCAEDRDALRQLQPSRPGPGECTLDHGSKLFFRRL
B3: UPF3A (protein, UniProt Q9H1J1 1-476)
chain: MRSEKEGAGGLRAAVAARGPSGREKLSALEVQFHRDSQQQEAETPPTSSSGCGGGAGKPREEKRTALSKVVIRRLPPGLTKEQLEEQLRPLPAHDYFEFFAADLSLYPHLYSRAYINFRNPDDILLFRDRFDGYIFLDSKGLEYPAVVEFAPFQKIAKKKLRKKDAKTGSIEDDPEYKKFLETYCVEEEKTSANPETLLGEMEAKTRELIARRTTPLLEYIKNRKLEKQRIREEKREERRRRELEKKRLREEEKRRRREEERCKKKETDKQKKIAEKEVRIKLLKKPEKGEEPTTEKPKERGEEIDTGGGKQESCAPGAVVKARPMEGSLEEPQETSHSGSDKEHRDVERSQEQESEAQRYHVDDGRRHRAHHEPERLSRRSEDEQRWGKGPGQDRGKKGSQDSGAPGEAMERLGRAQRCDDSPAPRKERLANKDRPALQLYDPGARFRARECGGNRRICKAEGSGTGPEKREEAE

Sequences of proteins named here, by UniProt entry; tags and fusion partners are left off.
UniProt Q04207: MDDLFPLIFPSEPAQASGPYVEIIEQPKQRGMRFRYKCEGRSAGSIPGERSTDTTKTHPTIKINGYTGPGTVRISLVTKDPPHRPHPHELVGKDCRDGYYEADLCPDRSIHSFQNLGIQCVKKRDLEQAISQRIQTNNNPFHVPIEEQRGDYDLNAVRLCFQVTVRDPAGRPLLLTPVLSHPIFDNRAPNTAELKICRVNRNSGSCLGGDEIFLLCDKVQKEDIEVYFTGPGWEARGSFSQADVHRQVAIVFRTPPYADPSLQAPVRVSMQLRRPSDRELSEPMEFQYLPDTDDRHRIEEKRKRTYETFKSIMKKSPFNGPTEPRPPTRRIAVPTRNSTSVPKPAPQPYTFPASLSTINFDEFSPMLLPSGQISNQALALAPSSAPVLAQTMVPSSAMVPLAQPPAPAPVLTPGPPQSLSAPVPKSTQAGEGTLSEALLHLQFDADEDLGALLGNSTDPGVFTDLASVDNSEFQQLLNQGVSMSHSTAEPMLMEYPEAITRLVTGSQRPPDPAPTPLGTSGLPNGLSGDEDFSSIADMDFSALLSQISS
UniProt P15531: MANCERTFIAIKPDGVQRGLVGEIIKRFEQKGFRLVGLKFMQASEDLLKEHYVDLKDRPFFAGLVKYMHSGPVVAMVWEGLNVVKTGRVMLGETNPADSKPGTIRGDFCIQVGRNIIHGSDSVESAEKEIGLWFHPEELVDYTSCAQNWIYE
UniProt Q13191: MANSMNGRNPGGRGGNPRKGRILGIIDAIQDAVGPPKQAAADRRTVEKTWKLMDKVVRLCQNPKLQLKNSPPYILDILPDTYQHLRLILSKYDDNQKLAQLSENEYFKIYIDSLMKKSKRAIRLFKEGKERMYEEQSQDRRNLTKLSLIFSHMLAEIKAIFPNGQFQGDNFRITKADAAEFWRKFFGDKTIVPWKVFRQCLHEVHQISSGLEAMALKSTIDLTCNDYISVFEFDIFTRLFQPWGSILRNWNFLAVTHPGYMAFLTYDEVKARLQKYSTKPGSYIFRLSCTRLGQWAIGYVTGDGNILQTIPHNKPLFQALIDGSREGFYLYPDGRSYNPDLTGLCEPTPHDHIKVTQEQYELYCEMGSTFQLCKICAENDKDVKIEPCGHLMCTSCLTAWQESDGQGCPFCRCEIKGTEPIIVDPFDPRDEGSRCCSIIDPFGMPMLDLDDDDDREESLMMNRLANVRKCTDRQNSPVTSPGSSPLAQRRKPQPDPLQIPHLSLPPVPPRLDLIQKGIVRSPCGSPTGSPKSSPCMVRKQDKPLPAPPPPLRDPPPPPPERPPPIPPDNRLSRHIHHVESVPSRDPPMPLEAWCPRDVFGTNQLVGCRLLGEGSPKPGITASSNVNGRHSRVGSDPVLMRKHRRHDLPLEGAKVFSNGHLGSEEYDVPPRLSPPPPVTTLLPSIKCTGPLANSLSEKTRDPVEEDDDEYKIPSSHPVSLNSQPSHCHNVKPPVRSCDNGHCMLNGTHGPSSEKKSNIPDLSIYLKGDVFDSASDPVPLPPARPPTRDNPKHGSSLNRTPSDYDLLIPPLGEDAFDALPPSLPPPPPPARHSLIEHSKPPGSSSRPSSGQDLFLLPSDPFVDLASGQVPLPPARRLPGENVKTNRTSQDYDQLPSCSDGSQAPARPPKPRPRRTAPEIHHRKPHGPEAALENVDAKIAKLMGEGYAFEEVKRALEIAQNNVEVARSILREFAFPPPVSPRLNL
UniProt P14136: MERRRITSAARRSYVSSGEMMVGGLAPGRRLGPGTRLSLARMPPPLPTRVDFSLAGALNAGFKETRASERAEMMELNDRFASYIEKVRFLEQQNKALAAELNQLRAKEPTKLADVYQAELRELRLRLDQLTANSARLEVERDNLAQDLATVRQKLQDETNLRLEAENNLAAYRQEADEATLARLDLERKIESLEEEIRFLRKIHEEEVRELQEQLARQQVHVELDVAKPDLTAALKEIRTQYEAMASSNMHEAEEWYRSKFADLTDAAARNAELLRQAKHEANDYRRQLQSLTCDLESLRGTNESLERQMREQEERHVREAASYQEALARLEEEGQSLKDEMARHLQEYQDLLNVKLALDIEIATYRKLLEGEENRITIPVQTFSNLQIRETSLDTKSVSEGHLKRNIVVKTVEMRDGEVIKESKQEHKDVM

Molecular target: His-tagged full-length RelA (UniProt Q04207)
Test: affinity purification with mass spectrometry; biotinylated IFNb-κB DNA on streptavidin agarose beads with 100 ng recombinant full-length RelA and Mono Q fraction Q23 of unstimulated HeLa nuclear extract; control without RelA; 25 mM Tris-HCl pH 7.5, 150 mM NaCl, 5% glycerol, 1 mM DTT; overnight at 4°C; LC-MS; only the target purified

Molecule | binding
NME1 (nucleoside diphosphate kinase 1) (from UniProt P15531 1-152) | binds
CBLB (from UniProt Q13191 1-982) | binds
GFAP (from UniProt P14136 1-432) | binds
B1 | binds
B2 | binds
B3 | binds
